Results taken from PMC11545931.
These are yes or no findings as the source states them, for the method shown. In cells and extracts the contact can be indirect. Some entries that bind do so weakly or less than the wild type.

Chains of the proteins cited; added tags and fusions are not shown.
UniProt Q39026: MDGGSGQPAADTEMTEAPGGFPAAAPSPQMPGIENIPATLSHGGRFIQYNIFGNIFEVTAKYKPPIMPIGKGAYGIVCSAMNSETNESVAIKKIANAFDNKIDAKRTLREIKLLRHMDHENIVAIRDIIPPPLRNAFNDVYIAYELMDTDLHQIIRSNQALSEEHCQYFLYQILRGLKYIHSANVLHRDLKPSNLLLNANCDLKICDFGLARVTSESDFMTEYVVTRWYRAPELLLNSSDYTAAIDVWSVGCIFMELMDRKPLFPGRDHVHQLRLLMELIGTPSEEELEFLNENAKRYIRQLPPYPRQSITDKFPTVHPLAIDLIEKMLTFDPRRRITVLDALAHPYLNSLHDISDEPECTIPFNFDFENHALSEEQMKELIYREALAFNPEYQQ

How the values were obtained:
[1] = target: T1, MPK3, Arabidopsis mitogen-activated protein kinase 3 (Arabidopsis thaliana) (UniProt Q39023); assay: split reporter; BiFC with split YFP; both proteins transiently co-expressed with P19 in N. benthamiana leaf epidermal cells by agroinfiltration; YFP fluorescence by confocal microscopy three days after infiltration
T1 sequence: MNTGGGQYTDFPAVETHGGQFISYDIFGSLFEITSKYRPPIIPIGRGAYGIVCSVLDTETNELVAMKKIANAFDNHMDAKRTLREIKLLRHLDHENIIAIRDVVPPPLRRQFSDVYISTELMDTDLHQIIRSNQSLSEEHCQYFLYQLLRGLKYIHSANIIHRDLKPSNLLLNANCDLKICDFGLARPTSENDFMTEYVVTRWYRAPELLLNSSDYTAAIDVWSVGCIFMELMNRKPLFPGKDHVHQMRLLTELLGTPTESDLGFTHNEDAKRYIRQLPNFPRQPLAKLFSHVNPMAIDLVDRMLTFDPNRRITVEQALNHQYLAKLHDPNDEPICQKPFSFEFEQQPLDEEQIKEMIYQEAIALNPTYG

[2] = target: MPK6, Arabidopsis mitogen-activated protein kinase 6 (Arabidopsis thaliana) (UniProt Q39026); assay: as above

B1: WLIM2A (At2g39900), Arabidopsis LIM protein (protein, UniProt O04193 1-200)
chain: MSFTGTQQKCRACEKTVYPVELLSADGISYHKACFKCSHCKSRLQLSNYSSMEGVVYCRPHFEQLFKESGSFSKNFQSPAKPLTDKPTPELNRTPSRLAGMFSGTQDKCATCTKTVYPIEKVTVESQCYHKSCFKCSHGGCPISPSNYAALEGILYCKHHFAQLFKEKGSYNHLIKSASIKRATAAATAAAAAVAAVPES
Which binding [1] does the source give for B1 here?
The binding was “binds”.

And the binding [2]?
Its binding is “binds”.
